# Results reported in PubChem BioAssay AID2685 (National Center for Advancing Translational Sciences (NCATS), 2010).
# This is one part of the list. Shown are side measurements of this screen, not its main read-out; they come without a call. Compounds called inactive in the main read-out are mostly missing here. Words in brackets tell the shape of the fitted curve; partial curves, single points and poor fits give uncertain potencies.
# Assay: qHTS Assay for Lipid Storage Modulators in Drosophila S3 Cells;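 as to cell number change: cells counted by Cell Tracker Red CMTPX staining in the red channel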
# Details: BODIPY lipid droplet fluorescence, 18-24 h; for cell number change: measured here: cell count max response, cells fed with added oleic acid
# In short: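 Laser-scanning cytometry quantifies lipid droplet accumulation (500–530 nm total intensity; droplet/cell object ratio) in oleic acid-fed (400 uM added) Drosophila S3 cells treated with a concentration series. 20 uM Triacsin C defined 100% inhibition.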
# [1] = measured here: cell number channel AC50, cells fed with added oleic acid
# [2] = measured here: lipid fluorescence (Fed channel) AC50, cells fed with added oleic acid
Structure (SMILES),cell number change,AC50 [1],AC50 [2]
Cc1ccc(/C(O)=C2/C(=O)C(=O)N(Cc3ccco3)C2c2cccs2)cc1 (stereo not given),-3.93%,–,–
COc1ccc(S(=O)(=O)NCC2CCCO2)cc1NC(=O)c1ccc(Cl)cc1 (stereo not given),64.6%,"29.1 µM [rising, single point]",–
COc1ccc(NC(=O)n2ncc3cc(Cl)ccc32)cc1OC,-16.2%,–,"0.103 µM [falling, full curve]"
CN1C(=O)C(O)(CC(=O)c2cccc(-n3cccc3)c2)c2ccccc21 (stereo not given),–,–,"6.51 µM [rising, single point]"
COc1cccc(NC(=O)COC(=O)/C=C/c2ccc(Cl)cc2Cl)c1,-1.1%,–,–
c1cnc2cc(-c3ccsc3)ncc2c1,2.72%,–,–
COc1c2ccccc2c(OC)c2ccccc12,-47.3%,"32.6 µM [falling, partial curve]","29.1 µM [falling, partial curve, poor fit]"
CCC(=O)NC(=S)Nc1ccc(NC(=O)c2cc3ccccc3o2)c(OC)c1,-44.9%,"10.3 µM [falling, partial curve, poor fit]","7.31 µM [falling, partial curve]"
COc1ccc(NC(=O)c2cc(-c3cccnc3)nc3ccc(C)cc23)cc1OC,-68.1%,"29.1 µM [falling, single point]","29.1 µM [falling, single point]"
COc1ccccc1OCC(=O)Nc1ccc(-c2nnc(-c3ccco3)o2)cc1,-9.61%,–,"0.116 µM [falling, full curve, poor fit]"
COc1ccc(-c2nc3ccccc3c(=O)n2CCOc2ccccc2C)cc1,11.2%,–,"2.59 µM [rising, partial curve]"
CCOc1nc(Nc2ccc(F)cc2)nc(N2CCN(c3ccc(OC)cc3)CC2)n1,8.18%,–,"1.84 µM [rising, partial curve]"
COC(=O)C1=C(N)Oc2cc(C)n(Cc3ccccc3)c(=O)c2C1c1ccccc1 (stereo not given),59.5%,"5.17 µM [rising, full curve]","6.51 µM [rising, single point]"
CN(C)C(=O)CCN1CCOCC1,9.48%,–,–
O=S(=O)(NCC1CCN(c2ccc(S(=O)(=O)N3CCOCC3)cc2)CC1)c1ccccc1,31%,"23.1 µM [rising, single point]",–
O=C(CCNS(=O)(=O)c1ccccc1C(F)(F)F)Nc1ccncc1,11.9%,–,"16.4 µM [rising, partial curve, poor fit]"
COc1ccc(Cl)cc1NC(=O)CCN1CCN(C)CC1,-1.43%,–,"14.6 µM [rising, partial curve]"
Cc1ccc2c(c1)N(S(=O)(=O)c1ccc(CN3C(=O)c4cccnc4C3=O)s1)CCO2,–,–,"0.116 µM [rising, full curve, poor fit]"
CCC(C)(C)n1nnnc1C(c1ccc(C)cc1)N1CCN(Cc2cccnc2)CC1 (stereo not given),-5.52%,–,"0.116 µM [rising, full curve, poor fit]"
CSc1ncccc1C(=O)N1CCCC(N2CCN(c3ccccc3F)CC2)C1 (stereo not given),-8.04%,–,–

# Compounds from the list above that have two or more sulfur atoms (2):
Structure (SMILES),cell number change,AC50 [1],AC50 [2]
O=S(=O)(NCC1CCN(c2ccc(S(=O)(=O)N3CCOCC3)cc2)CC1)c1ccccc1,31%,"23.1 µM [rising, single point]",–
Cc1ccc2c(c1)N(S(=O)(=O)c1ccc(CN3C(=O)c4cccnc4C3=O)s1)CCO2,–,–,"0.116 µM [rising, full curve, poor fit]"

# (cont.)

Structure (SMILES),cell number change,AC50 [1],AC50 [2]
COc1ccccc1Cn1c(=S)[nH]c2ccc(F)cc2c1=O,14.1%,"5.17 µM [rising, partial curve]",–
Cc1ccccc1OCC(=O)Nc1ccccc1N1CCCCC1,-27.2%,–,"13 µM [falling, partial curve]"
CCOP(=O)(OCC)c1nc(-c2ccc(Cl)cc2Cl)oc1N1CCCCC1,8.21%,–,"0.58 µM [falling, single point]"
O=C(COc1ccc(Br)cc1)N/N=C1/SCC(=O)N1Cc1ccco1,-50.5%,"25.9 µM [falling, partial curve]",–
O=C(CCn1c(=O)c2cccn2c2ccc(F)cc21)NCc1cccc(F)c1,-54.2%,"29.1 µM [falling, single point]",–
Cc1nn(C)c(C)c1/C=N/N=C1\CCC2C3CCc4cc(O)ccc4C3CCC12C (stereo not given),-8.48%,–,–
C[C@H](C(O)c1ccccc1)N(C)C(=O)CN (stereo not given in full),–,–,"29.1 µM [rising, single point]"
Cc1ccc(C)n1-n1c(C)nc2sc(-c3ccccc3)cc2c1=O,–,"2.91 µM [rising, partial curve]","2.31 µM [rising, partial curve]"
CC(C)NCC(=O)C12CC3CC(CC(C3)C1)C2,0.117%,–,–
CCC(=O)OCCCCCCOc1ccc(C(=O)O)cc1,-24.2%,–,"20.6 µM [rising, single point]"
COC(=O)c1ccc(COC(=O)CNC(=O)c2ccc(-c3ccccc3)cc2)cc1,6.11%,–,"29.1 µM [falling, single point]"
COc1cccc(CNC(=O)COC(=O)c2cc(Br)c(Br)s2)c1,-52.5%,"23.1 µM [falling, single point]",–
COc1ccc(N=C2SC(CC(=O)Nc3cccc(Cl)c3)C(=O)N2Cc2ccco2)cc1 (stereo not given),–,–,"29.1 µM [falling, single point]"
Cc1cc(N2C(=O)C(O)=C(C(=O)c3ccco3)C2c2ccc(Cl)cc2)no1 (stereo not given),-5.42%,–,"6.51 µM [falling, single point]"
Cc1cc(=O)oc2cc(OCC(=O)N3CCCC3)c(Cl)cc12,8.14%,–,"18.4 µM [falling, single point]"
COc1cc(CCC(=O)OCC(=O)c2ccc[nH]2)cc(OC)c1OC,0.937%,–,"2.59 µM [falling, single point]"
COc1ccc(CC(=O)OCC(=O)NCc2ccco2)cc1,-19.8%,"6.51 µM [falling, single point]","3.26 µM [falling, full curve]"
CCn1c(C)nc2cc(S(=O)(=O)C(F)(F)C(F)C(F)(F)F)ccc21 (stereo not given),-52.2%,"18.4 µM [falling, single point]","6.51 µM [falling, full curve]"
Cc1cc(C(=O)COC(=O)c2ccc3c(c2)OCO3)c(C)n1CC1CCCO1 (stereo not given),103%,"2.59 µM [rising, full curve]",–
CC12CCC(C(=O)N(CC(O)CN3CCCCC3)C1=O)C2(C)C (stereo not given),-72.4%,"18.4 µM [falling, partial curve]",–
